PubChem BioAssay AID720505 | Drosophila RNAi Screening Center | 2013
The deposit covers about 20,000 reagents; this is a random part of those with a known target gene and a result. Over the whole deposit, about 2,100 (10%) got an active call. 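Raw plate signals without normalisation; calls rest on control-based scores that were not deposited; replicate 2 separates called from uncalled poorly.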 A plus sign joins genes that one reagent is predicted to hit. The record does not give: the amount of reagent, the time to read-out.

- Screen: 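Genes needed for store-operated calcium entry in fly cells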 (primary screen)
- Cell system: Drosophila S2R+ cells
- Reagent: long dsRNA against Drosophila genes
- Challenge: thapsigargin (2 µM) in calcium-free buffer to empty internal stores, then 2 mM calcium added back
- Measurement: 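Stores emptied by 2 µM thapsigargin without calcium, then 2 mM calcium re-added; fluo-4 fluorescence followed by FLIPR in 384-well plates, per-well averaged endpoint, raw; two screen passes, some wells retested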
- Reading the numbers: calcium signal and retest calcium signal: higher = more calcium entry after store depletion
- Rule for the call: 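Knock-downs counted as hits when calcium entry dropped relative to STIM1 positive and Rho1 negative controls present on each plate; roughly 1500 genes called, with reductions of differing size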
- Calls: active = called as lowering calcium entry; inactive = not called

gene | PubChem SID | calcium signal, replicate 1 | calcium signal, replicate 2 | retest calcium signal, replicate 1 | retest calcium signal, replicate 2 | Outcome
CG1894 | SID104195188 | 161 | 138 | – | – | inactive
tpr | SID104184260 | 137 | 100 | – | – | inactive
Arglu1 | SID104182701 | 216 | 180 | – | – | inactive
Rnf146 | SID104190837 | 81.7 | 156 | – | – | inactive
CG40485 | SID104200416 | 67.2 | 186 | – | – | active
snoRNA:U31:54Ec + snoRNA:snR38:54Eb + snoRNA:U27:54Eb + 8 more | SID104186250 | 113 | 142 | – | – | inactive
stan | SID104185026 | 61.8 | 104 | – | – | inactive
stan | SID104187489 | 139 | 104 | – | – | inactive
ppk19 | SID104195113 | 139 | 105 | – | – | inactive
CAH6 | SID104195297 | 197 | 146 | – | – | inactive
IP3K2 | SID104199292 | 114 | 88.7 | 8885 | 79.8 | inactive
IP3K2 | SID104199539 | 97.5 | 105 | – | – | inactive
IP3K2 | SID104202028 | 108 | 183 | – | – | inactive
CG32099 | SID104201127 | 146 | 103 | – | – | inactive
wrm1 + wrm2 | SID104190799 | 131 | 120 | – | – | inactive
BomBc2 | SID104186294 | 223 | 157 | – | – | inactive
larp | SID104194520 | 156 | 169 | – | – | inactive
larp | SID104196776 | 162 | 165 | – | – | inactive
larp | SID104201497 | 79.3 | 134 | – | – | inactive
Gr22d | SID104201343 | 148 | 134 | – | – | inactive
Sin3A | SID104187344 | 139 | 120 | – | – | inactive
Adat1 | SID104183271 | 73.7 | 156 | – | – | active
Bace | SID104181989 | 91.3 | 99.3 | – | – | inactive
CG34230 | SID104185109 | 62 | 109 | – | – | inactive
CG13075 | SID104189750 | 124 | 197 | – | – | inactive
CG14073 | SID104189870 | 85.6 | 128 | – | – | inactive
CG30411 | SID104183796 | 66.1 | 78.3 | – | – | active
feo | SID104199190 | 119 | 150 | – | – | inactive
dyw | SID104198020 | 123 | 150 | – | – | inactive
CG34203 | SID104183647 | 135 | 7766 | – | – | inactive
CG34375 | SID104194476 | 233 | 172 | – | – | inactive
CG34375 | SID104194477 | 240 | 166 | – | – | inactive
capu | SID104180000 | 85.1 | 125 | – | – | active
capu | SID104180001 | 78 | 96.5 | – | – | inactive
capu | SID104180226 | 167 | 85.5 | – | – | inactive
capu | SID104180599 | 128 | 190 | – | – | inactive
CG9107 | SID104182930 | 87.8 | 193 | – | – | inactive
LManIII | SID104183013 | 96.6 | 111 | – | – | inactive
LManIV | SID104183014 | 77.8 | 74.3 | – | – | active
CG8675 | SID104199909 | 76.4 | 106 | – | – | active
CG32772 | SID104197844 | 252 | 85.2 | 9239 | 132 | inactive
CG32772 | SID104198198 | 88.1 | 106 | – | – | inactive
CG32772 | SID104201841 | 106 | 209 | – | – | inactive
Esp | SID104196456 | 128 | 120 | – | – | inactive
Tsp42Ei | SID104185981 | 101 | 140 | – | – | inactive
CG12496 | SID104198394 | 96.4 | 118 | – | – | inactive
CG3527 | SID104198099 | 146 | 101 | – | – | inactive
CG11291 | SID104183889 | 56.5 | 241 | – | – | inactive
mldr | SID104197892 | 131 | 135 | – | – | inactive
CG8300 | SID104198218 | 144 | 134 | – | – | inactive
CG8300 | SID104202588 | 99.8 | 143 | – | – | inactive
rdgBbeta | SID104187464 | 170 | 164 | – | – | inactive
CG7565 | SID104190673 | 81.1 | 104 | – | – | inactive
CG31248 | SID104202102 | 154 | 196 | – | – | inactive
CG13603 | SID104194398 | 116 | 160 | – | – | inactive
CG9706 | SID104190887 | 116 | 102 | – | – | inactive
CG31220 | SID104201774 | 83.8 | 176 | – | – | inactive
Nnf1a | SID104186186 | 74.3 | 94.2 | – | – | inactive
sni | SID104197562 | 105 | 74.6 | – | – | inactive
Larp7 | SID104198590 | 141 | 107 | – | – | inactive
Jon44E | SID104187008 | 131 | 151 | – | – | inactive
spn-B | SID104196855 | 75.3 | 85.4 | – | – | active
cmet | SID104183303 | 177 | 141 | – | – | inactive
CG14322 | SID104194593 | 153 | 79 | – | – | inactive
GIIIspla2 | SID104197886 | 136 | 82.2 | – | – | inactive
Kots | SID104196373 | 78.7 | 112 | – | – | active
Acbp2 | SID104190933 | 73.3 | 65.1 | – | – | inactive
CG14606 | SID104192342 | 115 | 124 | – | – | inactive
CG10874 | SID104180089 | 144 | 167 | – | – | inactive
Magi | SID104184039 | 197 | 130 | – | – | inactive
Magi | SID104184243 | 57.8 | 217 | – | – | inactive
side-VIII | SID104185672 | 101 | 105 | – | – | inactive
side-VIII | SID104185675 | 64.1 | 119 | – | – | active
side-VIII | SID104185949 | 106 | 78.3 | 100 | 115 | inactive
side-VIII | SID104202544 | 121 | 131 | – | – | inactive
AsnRS | SID104181782 | 91.1 | 112 | – | – | inactive
CG12490 | SID104183915 | 137 | 188 | – | – | inactive
vvl | SID104191201 | 107 | 73.5 | – | – | inactive
Cpr51A | SID104185761 | 114 | 142 | – | – | inactive
CG31778 | SID104180075 | 121 | 183 | – | – | inactive
l(2)k09848 | SID104184686 | 164 | 115 | – | – | inactive
CG14915 | SID104182191 | 176 | 181 | – | – | inactive
CG34107 | SID104194346 | 126 | 103 | – | – | inactive

Ordered by “calcium signal, replicate 2” (descending): some entries from above.
gene | PubChem SID | calcium signal, replicate 1 | calcium signal, replicate 2 | retest calcium signal, replicate 1 | retest calcium signal, replicate 2 | Outcome
CG13075 | SID104189750 | 124 | 197 | – | – | inactive
larp | SID104194520 | 156 | 169 | – | – | inactive
larp | SID104196776 | 162 | 165 | – | – | inactive
BomBc2 | SID104186294 | 223 | 157 | – | – | inactive
Adat1 | SID104183271 | 73.7 | 156 | – | – | active
larp | SID104201497 | 79.3 | 134 | – | – | inactive
Gr22d | SID104201343 | 148 | 134 | – | – | inactive
CG14073 | SID104189870 | 85.6 | 128 | – | – | inactive
wrm1 + wrm2 | SID104190799 | 131 | 120 | – | – | inactive
Sin3A | SID104187344 | 139 | 120 | – | – | inactive
CG34230 | SID104185109 | 62 | 109 | – | – | inactive
CG32099 | SID104201127 | 146 | 103 | – | – | inactive
Bace | SID104181989 | 91.3 | 99.3 | – | – | inactive
CG30411 | SID104183796 | 66.1 | 78.3 | – | – | active
